{
  "source": "paper PMC7972245",
  "molecular_target": "HNRNPK (human (endogenous in BGC823 and SGC7901)) (UniProt P61978)",
  "assay": "co-IP; BGC823 and SGC7901 lysates precleared with Protein A/G PLUS-Agarose, immunoprecipitated for HNRNPK (control IgG); Western blot for β-catenin; also after circFAM73A overexpression (interaction promoted) or knockdown (interaction weakened)",
  "note": "Results are given in words; binding and its absence hold for the method and conditions named. In cells and extracts the contact can be indirect. Some results given as binding are weak or reduced against the parent protein; the word gives no strength.",
  "data": [
    {"substance": "β-catenin (from UniProt P35222 1-781)", "values": [
      {"measurement": "binding", "value": "binds"}
    ]}
  ]
}
